Test results: US20110160280A1, “CANCER-RELATED GENES, CDCA5, EPHA7, STK31 AND WDHD1” (Oncotherapy Science, Inc., priority 2007, published 2011)
No constants are given. Whether binding was seen depends on the method and setting. Some binding calls cover weakened binding; strength is not graded here.

Chains of the proteins cited; added tags and fusions are not shown. Lines headed by an entry give the natural chain unless they say otherwise; changes in a name come on top.
UniProt P06493: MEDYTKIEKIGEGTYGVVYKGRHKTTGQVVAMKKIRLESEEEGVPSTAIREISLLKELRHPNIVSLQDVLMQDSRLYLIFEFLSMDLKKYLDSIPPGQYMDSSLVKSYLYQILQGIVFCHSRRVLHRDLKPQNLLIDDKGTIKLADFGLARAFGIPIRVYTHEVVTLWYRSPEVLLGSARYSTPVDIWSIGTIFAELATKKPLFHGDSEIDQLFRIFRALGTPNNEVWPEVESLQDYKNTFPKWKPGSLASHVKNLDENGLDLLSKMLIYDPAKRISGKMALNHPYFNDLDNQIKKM
UniProt P28482: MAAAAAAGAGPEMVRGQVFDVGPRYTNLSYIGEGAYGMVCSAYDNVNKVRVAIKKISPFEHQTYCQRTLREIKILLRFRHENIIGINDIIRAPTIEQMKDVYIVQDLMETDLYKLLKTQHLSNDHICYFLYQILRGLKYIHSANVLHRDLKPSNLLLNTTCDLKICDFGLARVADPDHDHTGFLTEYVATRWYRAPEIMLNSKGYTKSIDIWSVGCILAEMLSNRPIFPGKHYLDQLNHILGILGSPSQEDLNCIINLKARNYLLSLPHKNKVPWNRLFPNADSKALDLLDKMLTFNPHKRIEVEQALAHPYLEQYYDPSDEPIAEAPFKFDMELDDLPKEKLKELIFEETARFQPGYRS
UniProt Q96FF9: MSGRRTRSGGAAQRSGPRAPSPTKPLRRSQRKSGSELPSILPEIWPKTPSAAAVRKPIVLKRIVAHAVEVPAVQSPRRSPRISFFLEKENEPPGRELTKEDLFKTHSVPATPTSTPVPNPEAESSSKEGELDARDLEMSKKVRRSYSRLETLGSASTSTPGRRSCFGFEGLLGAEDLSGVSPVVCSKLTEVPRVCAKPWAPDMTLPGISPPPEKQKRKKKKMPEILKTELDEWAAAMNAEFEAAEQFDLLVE

Legend:
[1] = molecular target: CDC2 (BioLabs) (Homo sapiens (Human)) (UniProt P06493); assay: interaction stated on the basis of kinase assays; no separate binding assay reported
ERK2 (Upstate) = ERK2 (Upstate) (UniProt P28482); assay: as above

Substance: full-length recombinant GST-CDCA5 (pGEX-6p-1/CDCA5 cleaved with Precision Protease) (from UniProt Q96FF9 1-252)
- binding [1]: binds
- binding (ERK2 (Upstate)): binds
